The text below walks through data of patent publication US7938981B2, “Deicing and heat transfer fluid compositions” (Bioamber S.A.S., priority 2009, dated 2011).

For series [1] the following is noted: 50% (wt.) concentration in water, 5 day test, cited from earlier work.
For series [2] the following is noted: 50% (wt.) concentration in water; cited from earlier work.
For series [3] the following is noted: after 50 freeze-thaw cycles, FIG. 2.
For series [4] the following is noted: 3 wt % deicer in water, no corrosion inhibitors, FIG. 1.
Series [5] in a line: Concrete scaling resistance (ASTM C 672 / C 672M). The following applies: from concrete scaling of Table 3.

Like-named read-outs stand apart in the source and are kept apart here.

On to `OCCO` [Ethylene Glycol], for which, in series [1], the BOD5 is recorded as 0.4^18 g O2/g fluid. The COD in series [2] is recorded as 0.65^19 g O2/g fluid.

Regarding `CC(O)CO` (stereo not shown) [Propylene Glycol], the BOD5 in series [1] is 0.5^18 g O2/g fluid. The COD in series [2] is 0.84^19 g O2/g fluid.

`O=C([O-])CCC(=O)[O-].[K+].[K+]` [Test No. 1, potassium succinate]: in series [3], the “concrete erosion (scaled concrete)” value was “negligible and comparable to that of water”. The BOD5 in series [1] is on record as 0.17^14 g O2/g fluid. The COD in series [2] was 0.25^14 g O2/g fluid. In series [4], the “dichromate treated magnesium alloy corrosion” value is listed as “substantially lower”.

As for `CC(=O)[O-].[K+]` [Test No. 2, potassium acetate], the “concrete erosion (scaled concrete)” value in series [3] was “significant”. In addition, the “more harmful on concrete relative to potassium succinate (Test No. 1)” value in series [5] came to 5360%. The “dichromate treated magnesium alloy corrosion” value in series [4] is listed as “significant”.

Consider `O=C[O-].[K+]` [Test No. 3, potassium formate], for which, in series [3], the “concrete erosion (scaled concrete)” value is recorded as “substantial”. Moreover, the BOD5 in series [1] (listed as Potassium formate) was 0.10^16 g O2/g fluid; in series [1] (listed as potassium formate), “significantly lower than that of both acetate and succinate”. Besides, the “more harmful on concrete relative to potassium succinate (Test No. 1)” value in series [5] is given as 14,840%. Besides, the “dichromate treated magnesium alloy corrosion” value in series [4] is listed as “highly susceptible to corrosion”.
